These are yes or no findings as the source states them, for the method shown. Binding can be weak; no strength is given. For some assays here: Binding seen in cells or lysates may run through a third protein. Each block holds one substance with its values, some of them ahead of it.
Legend:
FLAG-DDX39B (human) [1] = molecular target: FLAG-DDX39B (human) (UniProt Q13838); test: co-IP; tandem affinity purification with anti-Flag and anti-HA magnetic beads from lysates of CRC cells cotransfected with Flag-DDX39B and HA-PKM2
VN173-DDX39B (human) = VN173-DDX39B (human) (UniProt Q13838); test: split reporter; BiFC with Venus fragments VN173 and VC155 in HCT116 and SW620 cells
GST-fused DDX39B (human) = GST-fused DDX39B (human) (UniProt Q13838); test: pull-down; GST pull-down: bacterially expressed GST-fused DDX39B on glutathione Sepharose beads with His-fused PKM2, overnight at 4 °C, washed with 0.1% NP-40 buffer, immunoblot; both purified
His-fused PKM2 = His-fused PKM2 (UniProt P14618); test: pull-down; Ni-NTA pull-down: bacterially expressed His-tagged PKM2 on Ni-NTA agarose beads with wild type or mutant GST-tagged DDX39B, overnight at 4 °C, washed with 0.1% NP-40 buffer, immunoblot; both purified
FLAG-DDX39B (human) [2] = molecular target: FLAG-DDX39B (human) (UniProt Q13838); test: co-IP; CRC cells stably expressing mock, DDX39B^WT or DDX39B^R319A; interaction with PKM2
[3] = molecular target: purified recombinant PKM2 (UniProt P14618); test: in vitro competitive binding analysis; purified proteins; increasing amounts of DDX39B added to PKM2 (WT or 1-219 aa) and STUB1; western blotting; both purified
[4] = molecular target: purified recombinant PKM2 1-219 aa protein (UniProt P14618); test: as above

By UniProt entry, the sequences of proteins in these tests, tags left out. Where a name states a change or a piece, a line headed by the entry shows the natural chain unless it says otherwise. Residues count along the entry.
UniProt Q13838: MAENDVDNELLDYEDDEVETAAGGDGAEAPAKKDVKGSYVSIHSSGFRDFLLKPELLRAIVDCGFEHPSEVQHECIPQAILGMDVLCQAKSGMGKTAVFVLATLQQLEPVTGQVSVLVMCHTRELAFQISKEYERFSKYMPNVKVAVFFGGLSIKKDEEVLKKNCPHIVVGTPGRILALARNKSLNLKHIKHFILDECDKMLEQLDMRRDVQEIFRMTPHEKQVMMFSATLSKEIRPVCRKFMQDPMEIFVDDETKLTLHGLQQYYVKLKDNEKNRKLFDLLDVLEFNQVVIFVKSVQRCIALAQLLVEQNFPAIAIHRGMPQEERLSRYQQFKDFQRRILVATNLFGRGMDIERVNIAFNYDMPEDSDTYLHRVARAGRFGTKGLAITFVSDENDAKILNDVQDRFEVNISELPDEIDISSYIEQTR
UniProt P14618: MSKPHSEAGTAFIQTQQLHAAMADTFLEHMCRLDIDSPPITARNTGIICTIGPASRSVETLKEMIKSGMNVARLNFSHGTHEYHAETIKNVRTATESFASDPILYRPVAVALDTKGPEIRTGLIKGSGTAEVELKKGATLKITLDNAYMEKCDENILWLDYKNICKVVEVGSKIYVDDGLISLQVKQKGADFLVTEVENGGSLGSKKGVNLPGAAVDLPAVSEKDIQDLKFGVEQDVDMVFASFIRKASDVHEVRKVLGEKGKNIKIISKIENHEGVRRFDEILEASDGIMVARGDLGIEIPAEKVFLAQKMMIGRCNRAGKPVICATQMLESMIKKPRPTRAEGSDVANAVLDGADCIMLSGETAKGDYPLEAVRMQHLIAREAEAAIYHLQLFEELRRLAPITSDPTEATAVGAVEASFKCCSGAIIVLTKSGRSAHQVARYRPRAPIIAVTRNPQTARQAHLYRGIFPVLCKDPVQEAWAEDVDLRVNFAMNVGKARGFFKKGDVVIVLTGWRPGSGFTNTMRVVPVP
purified recombinant PKM2 1-219 aa protein: residues 1-219 of P14618
UniProt P52294: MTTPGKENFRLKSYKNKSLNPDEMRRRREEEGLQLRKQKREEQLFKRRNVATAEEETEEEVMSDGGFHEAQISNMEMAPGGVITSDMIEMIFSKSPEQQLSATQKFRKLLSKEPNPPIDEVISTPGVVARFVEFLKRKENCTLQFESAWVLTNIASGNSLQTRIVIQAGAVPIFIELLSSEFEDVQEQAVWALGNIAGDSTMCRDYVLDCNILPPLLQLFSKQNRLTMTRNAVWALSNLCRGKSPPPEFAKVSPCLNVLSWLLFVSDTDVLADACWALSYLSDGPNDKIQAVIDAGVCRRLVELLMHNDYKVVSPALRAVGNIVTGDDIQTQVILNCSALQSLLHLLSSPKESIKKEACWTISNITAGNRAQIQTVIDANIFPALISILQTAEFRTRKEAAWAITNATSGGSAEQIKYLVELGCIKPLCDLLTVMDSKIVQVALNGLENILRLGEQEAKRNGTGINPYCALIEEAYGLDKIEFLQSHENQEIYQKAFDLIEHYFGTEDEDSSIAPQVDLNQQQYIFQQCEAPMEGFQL

binding (VN173-DDX39B (human)): binds
Substance: VC155-PKM2 (from UniProt P14618 1-531)

binding (GST-fused DDX39B (human)): binds
Substance: His-fused PKM2 (from UniProt P14618 1-531)

binding (His-fused PKM2): binds
Substance: GST-fused DDX39B (from UniProt Q13838)

binding (FLAG-DDX39B (human) [1]): binds
Substance: importin α5 (in CRC cells) (from UniProt P52294 1-538)

Further lines, the substance ahead of its results:

Substance: HA-PKM2 (full-length) (from UniProt P14618 1-531)
binding (FLAG-DDX39B (human) [1]): binds

Substance: endogenous PKM2 (from UniProt P14618 1-531)
binding (FLAG-DDX39B (human) [2]): binds

Substance: purified DDX39B protein (from UniProt Q13838)
binding [3]: binds | binding [4]: binds

From PMC9381590
